# In publication PMC7605441:
# Protein sequences, listed by entry. Tags and fused reporters are not part of them.
# UniProt Q08297: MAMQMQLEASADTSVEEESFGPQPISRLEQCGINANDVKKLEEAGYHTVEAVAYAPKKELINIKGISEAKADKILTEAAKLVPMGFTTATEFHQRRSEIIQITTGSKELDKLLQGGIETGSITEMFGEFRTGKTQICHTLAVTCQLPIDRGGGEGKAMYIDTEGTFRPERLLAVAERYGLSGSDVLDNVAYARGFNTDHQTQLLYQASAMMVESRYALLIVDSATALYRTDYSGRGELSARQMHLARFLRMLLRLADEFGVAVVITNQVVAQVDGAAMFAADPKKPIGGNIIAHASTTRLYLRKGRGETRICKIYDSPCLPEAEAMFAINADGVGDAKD
# Results are given in words; binding and its absence hold for the method and conditions named. Binding seen in cells or lysates may run through a third protein. Some binding calls cover weakened binding; strength is not graded here. Tags and fused reporters may be left off the sequences shown.
# Target: murine RAD51 with a C-terminal EGFP tag (mouse) (UniProt Q08297)
# Test: co-IP; GFP-tagged RAD51 co-expressed with mCherry-fused RAD51AP1 (WT or mutant) in 293T/293FT cells; reciprocal immunoprecipitation (lanes 1-10 and lanes 11-20 of Fig. 7e) on protein A-agarose beads with antibody, EBN buffer (0.5% NP40, 150 mM NaCl), 5 h, 4 °C, immunoblot; asynchronous cells, or cells arrested in mitosis with nocodazole (WT only)
row,Binder,binding
1,"murine RAD51AP1 S309A fused to mCherry (protein, UniProt Q8C551 1-337) MVRPTRNRKPINYSQFEDSGNDSDDDFISSSTPVNKSKTVPKVLKQDKPKPNLKNLQKEEVLPTEPPKKRVALDDKVFQRGLEVALALSVKELPTLTNQVKKSKEKSTDKQGKEKTENTGKPPRVSNCSVASDDVEDLDKITEEGDASSVEGERKSPSQAKAPRRRAPSEGSDGSSANDTESESATGEGSESDPDFDESKESDEDFGVRRSKESKKKTVQKKPAGEKKERKSKPKCEASVTSVDPAPAAIKSGSPSLPQAVGLPSEATRKPAIMCSPSAESKRPKWVPPAASGSRNSSSNALAGTPAKAPSQSLRLGLSRLAPVKRLHPSATSSQVR",binds
2,"murine RAD51AP1 S309D fused to mCherry (protein, UniProt Q8C551 1-337) MVRPTRNRKPINYSQFEDSGNDSDDDFISSSTPVNKSKTVPKVLKQDKPKPNLKNLQKEEVLPTEPPKKRVALDDKVFQRGLEVALALSVKELPTLTNQVKKSKEKSTDKQGKEKTENTGKPPRVSNCSVASDDVEDLDKITEEGDASSVEGERKSPSQAKAPRRRAPSEGSDGSSANDTESESATGEGSESDPDFDESKESDEDFGVRRSKESKKKTVQKKPAGEKKERKSKPKCEASVTSVDPAPAAIKSGSPSLPQAVGLPSEATRKPAIMCSPSAESKRPKWVPPAASGSRNSSSNALAGTPAKDPSQSLRLGLSRLAPVKRLHPSATSSQVR",binds

# Results, then the binder that gave them:
row,binding,Binder
1,binds,"wild-type murine RAD51AP1 fused to mCherry (protein, UniProt Q8C551 1-337) MVRPTRNRKPINYSQFEDSGNDSDDDFISSSTPVNKSKTVPKVLKQDKPKPNLKNLQKEEVLPTEPPKKRVALDDKVFQRGLEVALALSVKELPTLTNQVKKSKEKSTDKQGKEKTENTGKPPRVSNCSVASDDVEDLDKITEEGDASSVEGERKSPSQAKAPRRRAPSEGSDGSSANDTESESATGEGSESDPDFDESKESDEDFGVRRSKESKKKTVQKKPAGEKKERKSKPKCEASVTSVDPAPAAIKSGSPSLPQAVGLPSEATRKPAIMCSPSAESKRPKWVPPAASGSRNSSSNALAGTPAKSPSQSLRLGLSRLAPVKRLHPSATSSQVR"
2,binds weakly,"murine RAD51AP1 T305D/S309D fused to mCherry (protein, UniProt Q8C551 1-337) MVRPTRNRKPINYSQFEDSGNDSDDDFISSSTPVNKSKTVPKVLKQDKPKPNLKNLQKEEVLPTEPPKKRVALDDKVFQRGLEVALALSVKELPTLTNQVKKSKEKSTDKQGKEKTENTGKPPRVSNCSVASDDVEDLDKITEEGDASSVEGERKSPSQAKAPRRRAPSEGSDGSSANDTESESATGEGSESDPDFDESKESDEDFGVRRSKESKKKTVQKKPAGEKKERKSKPKCEASVTSVDPAPAAIKSGSPSLPQAVGLPSEATRKPAIMCSPSAESKRPKWVPPAASGSRNSSSNALAGDPAKDPSQSLRLGLSRLAPVKRLHPSATSSQVR"
3,binds,"murine RAD51AP1 T305D fused to mCherry (protein, UniProt Q8C551 1-337) MVRPTRNRKPINYSQFEDSGNDSDDDFISSSTPVNKSKTVPKVLKQDKPKPNLKNLQKEEVLPTEPPKKRVALDDKVFQRGLEVALALSVKELPTLTNQVKKSKEKSTDKQGKEKTENTGKPPRVSNCSVASDDVEDLDKITEEGDASSVEGERKSPSQAKAPRRRAPSEGSDGSSANDTESESATGEGSESDPDFDESKESDEDFGVRRSKESKKKTVQKKPAGEKKERKSKPKCEASVTSVDPAPAAIKSGSPSLPQAVGLPSEATRKPAIMCSPSAESKRPKWVPPAASGSRNSSSNALAGDPAKSPSQSLRLGLSRLAPVKRLHPSATSSQVR"
